Measurements from PubChem BioAssay AID540256 (National Center for Advancing Translational Sciences (NCATS), 2011).
Where “and” joins values, the source holds several entries; their conditions need not be identical. Equal entries are not always repeated. The campaign covered roughly 300,000 compounds. About 3,700 (1.2%) were called active. Inconclusive results, whose numbers are uncertain, are shown with a selection of clear calls. Calls come from the whole dose curve; tested in HEK293 cells. Where the call is inconclusive, the potency comes from a doubtful curve fit.

test: qHTS for Inhibitors of binding or entry into cells for Lassa Virus; settings: Lassa virus pseudotype entry inhibition, cell reporter; series mostly up to 37.9 µM; note: nearly all actives have a fitted effect of over 50% in size
Potency is the fitted concentration of half-maximal effect.

Structure (SMILES)	Potency
O=C(OCc1ccccc1)/C(=C/c1cccc2ccccc12)NC(=O)c1ccccc1	inconclusive: 22.4 µM [inhibitor, single point]
Cc1ccc(NS(=O)(=O)c2cccc(C(=O)NCC(c3ccc(F)cc3)N3CCOCC3)c2)cc1 (stereo unspecified)	inconclusive: 35.5 µM [inhibitor, single point]
Cc1ccc(S(=O)(=O)c2c(C)nn(C(C)(C)C)c2OC(=O)C(C)(C)C)cc1	inconclusive: 25.1 µM [inhibitor, single point]
CC(C)(C)c1ccc(C(=O)NCC(=O)N2CCCCCC2)cc1	inactive
Cc1cc(=O)oc2cc(OCC(=O)Nc3c(Cl)cccc3C(F)(F)F)ccc12	inconclusive: 20 µM [inhibitor, single point]
CSc1ccccc1-c1nc(-c2ccncc2)no1	inconclusive: 35.5 µM [inhibitor, single point]
CCn1cc(S(=O)(=O)c2ccc(Cl)cc2)c(=O)c2cc(F)c(N3CCOCC3)cc21	inactive
Cc1cccc(C(=O)OCC(=O)c2c(N)n(CC(C)C)c(=O)n(C)c2=O)c1O	inconclusive: 15.8 µM [inhibitor, single point]
CCN(CC)S(=O)(=O)c1ccc(N2CCCCS2(=O)=O)cc1	inconclusive: 0.562 µM [activator, full curve, poor fit]
Cc1ccc2onc(CNC(=O)N3CCN(c4cccc(C(F)(F)F)c4)CC3)c2c1	inactive
Cc1ccc(Nc2nc(C(=O)N3CCC(C(=O)NCCN4CCOCC4)CC3)cs2)cc1	inconclusive: 25.9 µM [activator, single point]
Cc1cccc(CC2S/C(=N/c3cccc(C)n3)NC2=O)c1 (stereo unspecified)	inconclusive: 0.631 µM [inhibitor, full curve, poor fit]
c1ccc(-c2csc(Nc3ccc4c(c3)OCCO4)n2)cc1	active: 10 µM
Cc1ccc2oc(-c3ccc(C)c(NC(=O)c4ccc(-c5ccccc5[N+](=O)[O-])o4)c3)nc2c1	inconclusive: 20 µM [activator, single point]
Cn1c(=O)c2c(c3ccccc31)OC(C)(C)CC2	inconclusive: 29.1 µM [activator, single point]
O=C(NCCC1=CCCCC1)c1ccc(=O)oc1	inactive
CC(C)COCc1ccc(O)c2ncccc12	inconclusive: 35.5 µM [inhibitor, single point]
COc1cccc(NC(=O)CN(C)C(=O)c2ccc(-c3ccc(Cl)cc3)o2)c1	inactive
Cc1occc1C(=O)Nc1ccc(Br)cc1F	inactive
CCN(CC)S(=O)(=O)c1cc(NC(=O)C(C)N2CCN(Cc3ccc4c(c3)OCO4)CC2)ccc1C (stereo unspecified)	inconclusive: 15.8 µM [inhibitor, single point]
Cc1cccc(OCC(=O)N/N=C/c2ccc(N(C)C)cc2)c1	inconclusive: 20 µM [inhibitor, single point]
COc1ccc(CCNC(=O)c2ccc(N(C)S(=O)(=O)c3ccc(C)cc3)cc2)cc1	inconclusive: 2 µM [inhibitor, partial curve, poor fit]

Structure (SMILES)	Potency
CCOC(=O)CC(NC(=O)c1ccc(C)cc1)c1ccc(OC)cc1 (stereo unspecified)	inconclusive: 10 µM [inhibitor, partial curve, poor fit]
O=C(OCc1c(F)cccc1Cl)c1cnc(Cl)c(Cl)c1	inactive
CN(C(=O)CSc1nc2ccccc2n1Cc1ccccc1C#N)c1ccccc1	inconclusive: 3.16 µM [inhibitor, full curve]
Cc1cc(C)cc(NC(=O)CC2NCCNC2=O)c1 (stereo unspecified)	inactive
C=CCN=C(C)C1=C(O)CCC1=O	inconclusive: 11.2 µM [activator, partial curve, poor fit]
CC(C)(C)C(=O)Nc1cc(NC(=O)C(C)(C)C)cc(C(=O)Nc2cc(C(=O)O)cc(C(=O)O)c2)c1	inconclusive: 0.708 µM [inhibitor, single point]
CCOc1ccc(-c2nc3cc(NC(=O)COc4cccc(C)c4)ccc3o2)cc1	inconclusive: 8.91 µM [activator, single point]
COc1ccc(C(CNC(=O)c2ccc(-c3ccccc3Cl)o2)N2CCOCC2)cc1 (stereo unspecified)	inconclusive: 4.47 µM [activator, partial curve, poor fit]
Cc1nn(Cc2ccc(Cl)c(Cl)c2)c(C)c1NC(=O)c1cn(-c2ccccc2)nc1-c1ccccc1	inconclusive: 14.1 µM [inhibitor, partial curve]
CCc1cc2cc(C(=O)Nc3ccccc3F)sc2s1	inactive
Cc1ccc(S(=O)(=O)C(CNC(=O)C(=O)NCc2ccc(Cl)cc2)c2ccco2)cc1 (stereo unspecified)	inactive
Oc1ccc(-c2nc3ccc4ccccc4c3c3c2CCC3)cc1O	inconclusive: 3.16 µM [inhibitor, partial curve, poor fit]
COc1ccc(Cc2nnc(NS(=O)(=O)c3ccccc3)s2)cc1	inconclusive: 28.2 µM [inhibitor, single point]
NS(=O)(=O)c1ccc2nc(NC(=O)Nc3ccccc3F)sc2c1	inconclusive: 2.82 µM [inhibitor, full curve, poor fit]
O=C1CC(=O)Nc2cc(S(=O)(=O)N3CCOc4ccc(Cl)cc43)ccc2N1	inconclusive: 5.62 µM [inhibitor, single point]
COc1ccc(OC)c(Nc2cc(C)nc3ccc(C)cc23)c1	inconclusive: 7.94 µM [inhibitor, partial curve, poor fit]
OCCCCNCc1cc(Br)ccc1OCc1ccccc1F	inconclusive: 11.2 µM [inhibitor, single point]
O=C(NCc1ccc(Cl)cc1)C1CCN(S(=O)(=O)c2ccccc2)CC1	inconclusive: 35.5 µM [inhibitor, single point]
O=C(Cc1c(F)cccc1Cl)N1CCN(S(=O)(=O)c2cccc(F)c2)CC1	inconclusive: 7.08 µM [inhibitor, partial curve, poor fit]
Cc1cc(C)c(NS(=O)(=O)c2ccc(-c3coc(C)n3)cc2)c(C)c1	inactive
NC(=O)c1sc(-n2cnc3cc(C(F)(F)F)ccc32)cc1OCc1ccccc1Br	inconclusive: 31.5 µM [inhibitor, single point]
O=C(c1cc(COc2c(F)cccc2F)on1)N(Cc1ccccc1)CC1CC1	inconclusive: 35.5 µM [inhibitor, single point]

Structure (SMILES)	Potency
CCOC(=O)C1CCCN(C(=O)COC(=O)c2cccs2)C1 (stereo unspecified)	inconclusive: 3.16 µM [activator, partial curve, poor fit]
N#CC1=C(N)Oc2cc(N)ccc2C1C1CCCCC1 (stereo unspecified)	inconclusive: 5.01 µM [inhibitor, partial curve]
COc1ccc(C(=O)NC(=S)Nc2ccc(S(N)(=O)=O)cc2)cc1	inactive
CN(C)/C=C1\SC(=S)N(N2C(=O)C3C4C=CC(C4)C3C2=O)C1=O (stereo unspecified)	inconclusive: 35.5 µM [inhibitor, single point]
Oc1ccc(-c2nc3ccc(Cl)cn3c2Nc2ccc3c(c2)OCO3)cc1	inconclusive: 35.5 µM [activator, single point]
COc1ccc(CCNC(=O)Cc2c(C)c3cc4c(C)coc4cc3oc2=O)cc1OC	inconclusive: 15.8 µM [activator, single point]
Cc1ccc(NC(=S)Nc2ccc(OC(F)F)c(Cl)c2)cc1Cl	inactive
COc1ccc(C(=O)CSc2nnc(-c3cc4ccccc4cc3O)n2Cc2ccco2)cc1	inconclusive: 29.1 µM [inhibitor, single point]
Cc1nc(Cc2ccccc2)sc1CC#N	inconclusive: 2.82 µM [inhibitor, single point]
N#CC(c1cccc(Cl)c1)c1ccc2c(C(F)(F)F)cc(C(F)(F)F)nc2n1 (stereo unspecified)	active: 2.24 µM
COCCCN=C1NN=C(c2cc(C)n(Cc3ccco3)c2C)CS1	inconclusive: 14.6 µM [inhibitor, partial curve]
N/C(=N\OC(=O)COc1ccc(Br)cc1Cl)c1cccnc1	inconclusive: 4.47 µM [activator, full curve, poor fit]
Cc1ccccc1NC(=O)c1ccc2ccccc2c1	inconclusive: 22.4 µM [inhibitor, single point]
Cc1ccc(-n2ncc(C(=O)Nc3cc(Cl)ccc3Cl)c2C2CCNCC2)cc1	inconclusive: 8.91 µM [inhibitor, partial curve, poor fit]
Cc1cccc(N2CCN(C(=O)c3noc4c3CCCCC4)CC2)c1C	inactive
O=C(NCCc1ccccc1)C1CCC(CNS(=O)(=O)c2cccs2)CC1 (stereo unspecified)	inconclusive: 1.78 µM [inhibitor, partial curve, poor fit]
Cc1cc(C(=O)C(=O)Nc2nncs2)c(C)n1-c1ccc(Cl)cc1	inconclusive: 11.2 µM [inhibitor, partial curve]
CC1CCN(C(=O)C(C)NCc2ccc(F)cc2)CC1 (stereo unspecified)	inactive
O=c1cc(N2CCCCC2)c(-c2ccccc2)nn1Cc1c(Cl)cccc1Cl	active: 12.6 µM
c1ccc(N2CCN(c3nc(-c4ccccn4)nc4ccccc34)CC2)cc1	inconclusive: 22.4 µM [inhibitor, single point]
CN(C)C(CNC(=O)c1ccccc1OCc1ccc(Cl)cc1)c1ccco1 (stereo unspecified)	inconclusive: 35.5 µM [inhibitor, single point]
Cn1c(=O)c2c(ncn2Cc2ccc(Cl)cc2)n(C)c1=O	inconclusive: 35.5 µM [inhibitor, single point] and inconclusive: 28.2 µM [inhibitor, partial curve, poor fit]

3 consecutive compounds from above:
Structure (SMILES)	Potency
Cc1nc(Cc2ccccc2)sc1CC#N	inconclusive: 2.82 µM [inhibitor, single point]
N#CC(c1cccc(Cl)c1)c1ccc2c(C(F)(F)F)cc(C(F)(F)F)nc2n1 (stereo unspecified)	active: 2.24 µM
COCCCN=C1NN=C(c2cc(C)n(Cc3ccco3)c2C)CS1	inconclusive: 14.6 µM [inhibitor, partial curve]
